Data: PMC3457940
Results are given in words; binding and its absence hold for the method and conditions named. In cells and extracts the contact can be indirect. Some results given as binding are weak or reduced against the parent protein; the word gives no strength. For some of these results: Where a sequence is shown, tags or fusion partners need not be part of it.

Protein sequences, listed by entry. Tags and fused reporters are not part of them.
UniProt P27986: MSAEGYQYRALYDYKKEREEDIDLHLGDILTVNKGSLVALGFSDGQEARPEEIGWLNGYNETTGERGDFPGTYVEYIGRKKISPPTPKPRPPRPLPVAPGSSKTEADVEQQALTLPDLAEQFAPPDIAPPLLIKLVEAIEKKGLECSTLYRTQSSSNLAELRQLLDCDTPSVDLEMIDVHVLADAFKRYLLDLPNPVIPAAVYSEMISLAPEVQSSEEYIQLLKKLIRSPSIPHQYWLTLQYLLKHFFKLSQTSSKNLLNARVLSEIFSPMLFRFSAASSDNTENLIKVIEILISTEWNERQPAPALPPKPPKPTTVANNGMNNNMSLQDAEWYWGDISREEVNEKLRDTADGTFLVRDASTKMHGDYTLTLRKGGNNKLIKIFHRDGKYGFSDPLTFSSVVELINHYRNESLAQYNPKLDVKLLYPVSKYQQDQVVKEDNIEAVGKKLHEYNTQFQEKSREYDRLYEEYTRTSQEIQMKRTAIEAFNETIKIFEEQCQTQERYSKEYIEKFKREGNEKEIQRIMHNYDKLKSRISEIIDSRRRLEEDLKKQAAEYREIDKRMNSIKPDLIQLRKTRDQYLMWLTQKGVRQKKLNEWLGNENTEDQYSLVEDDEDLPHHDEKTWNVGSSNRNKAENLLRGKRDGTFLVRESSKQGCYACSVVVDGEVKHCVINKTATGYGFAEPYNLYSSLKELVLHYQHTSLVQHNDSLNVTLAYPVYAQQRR

Tests used:
[1] = molecular target: PI3K regulatory subunit p85α (human (endogenous in H358)) (UniProt P27986); assay: co-IP; H358 cells transfected with full length or truncated His-PPARβ/δ, lysed in RIPA buffer; immunoprecipitation with anti-p85α serum and A/G sepharose beads; His-PPARβ/δ detected with anti-His antibody
[2] = molecular target: full length His-PPARβ/δ (PPARβ/δ 1–441) (UniProt Q03181); assay: pull-down; H358 cells transfected with His-PPARβ/δ, incubated with and without GW501516 for 18 h, lysed in RIPA buffer; His-PPARβ/δ pulled down with His-select nickel affinity gel; immunoblot for PPARβ/δ and p85α

Molecule: His-tagged truncated PPARβ/δ retaining the N-terminal part (PPARβ/δ 1–168) (from UniProt Q03181 1-168) (domain or fragment)
- binding [1]: binds

Molecule: PI3K regulatory subunit p85α (from UniProt P27986 1-724)
- binding [2]: binds

Molecule: full length His-PPARβ/δ (PPARβ/δ 1–441) (from UniProt Q03181 1-441)
- binding [1]: binds

B1: His-tagged truncated PPARβ/δ retaining the C-terminal part (PPARβ/δ 168–441) (domain or fragment, UniProt Q03181 168-441)
chain: YNPQVADLKAFSKHIYNAYLKNFNMTKKKARSILTGKASHTAPFVIHDIETLWQAEKGLVWKQLVNGLPPYKEISVHVFYRCQCTTVETVRELTEFAKSIPSFSSLFLNDQVTLLKYGVHEAIFAMLASIVNKDGLLVANGSGFVTREFLRSLRKPFSDIIEPKFEFAVKFNALELDDSDLALFIAAIILCGDRPGLMNVPRVEAIQDTILRALEFHLQANHPDAQYLFPKLLQKMADLRQLVTEHAQMMQRIKKTETETSLHPLLQEIYKDMY
- binding [1]: binds
